Target: T1, CCR2 (Homo sapiens, UniProt P41597)
T1 construct: host or cells: THP-1 human monocytic cells
Assay: MCP-1 Receptor Binding Assay in THP-1 Cells (125I-MCP-1 displacement)
Details: 0.5 nM 125I labeled MCP-1, 2 hours at 30° C., read-out: CCR2 Binding, Inhibition of MCP-1 Binding IC50
Experimental: Compounds of the invention were subjected to various representative biological tests. The results of these tests are intended to illustrate the invention in a non-limiting fashion. MCP-1 Receptor Binding Assay in THP-1 Cells
Human monocytic cell line THP-1 cells were obtained from American Type Culture Collection (Manassas, Va., USA). The THP-1 cells were grown in RPMI-1640 (RPMI: Roswell Park Memorial Institute Medium-cell culture growth media) supplemented with 10% fetal bovine serum in a humidified 5% CO2 atmosphere at 37° C. The cell density was maintained […].
THP-1 (cells were incubated with 0.5 nM ^125I labeled MCP-1 (Perkin-Elmer Life Sciences, Inc. Boston, Mass.) in the presence of varying concentrations of either unlabeled MCP-1 (R & D Systems, Minneapolis, Minn.) or test compound for 2 hours at 30° C. in a 96 well plate. Cells were then harvested onto a filter plate, dried, and 20 μL of Microscint 20 was added to each well. Plates were counted in a TopCount NXT, Microplate Scintillation & Luminescence Counter (Perkin-Elmer Life Sciences, Inc. Boston, Mass.). Blank values (buffer only) were subtracted from all values and drug treated values were compared to vehicle treated values. 1 μM cold MCP-1 was used for nonspecific binding.
Table 1 lists IC50 values for inhibition of MCP-1 binding to CCR2 obtained for test compounds of the invention. […]

The chains behind the UniProt entries cited, without tags or fusion partners. Where a name states a change or a piece, a line headed by the entry shows the natural chain unless it says otherwise.
UniProt P41597: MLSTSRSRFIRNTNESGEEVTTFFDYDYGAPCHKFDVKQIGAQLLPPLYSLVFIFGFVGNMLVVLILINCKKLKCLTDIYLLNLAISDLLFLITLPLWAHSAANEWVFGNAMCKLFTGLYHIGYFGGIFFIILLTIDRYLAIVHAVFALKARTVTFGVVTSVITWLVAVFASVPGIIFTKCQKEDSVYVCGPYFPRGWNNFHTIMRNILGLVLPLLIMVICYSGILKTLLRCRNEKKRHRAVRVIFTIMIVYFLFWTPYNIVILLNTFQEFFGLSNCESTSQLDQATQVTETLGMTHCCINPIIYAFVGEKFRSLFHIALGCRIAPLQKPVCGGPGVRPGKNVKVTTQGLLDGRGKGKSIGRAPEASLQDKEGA

Cc1cccnc1OC1CCC(N2CC(NC(=O)CNC(=O)c3cccc(C(F)(F)F)c3)C2)CC1 (single isomer, unassigned) [Example 17a, N-({1-[4-(3-Methyl-pyridin-2-yloxy)-cyclohexyl]-azetidin-3-ylcarbamoyl}-methyl)-3-trifluoromethyl-benzamide]
IC50: 2860 nM
